Measured data: PubChem BioAssay AID1508588 (Peter MacCallum Cancer Centre, 2020)
Shown is a random part of about 18,000 reagents. In the full data, 790 (4.4%) were called active. 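Calls rest on a combination of fold-change classes in drug and vehicle arms, not all shown here.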 A number with no mark means an inactive call.

Assay: 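Genome-wide search for knock-downs that heighten vemurafenib action in melanoma cells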 (primary screen)
Cells: human WM266.4 melanoma cells (BRAF V600 mutant)
Knock-down reagent: siRNA pool against human genes, 40 nM
Timing: 96 h from transfection to read-out
Conditions: vemurafenib 300 nM (about IC25), added 48 h after transfection, for 48 h; comparison arm got DMSO vehicle only
Measurement: 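Cell gain (DAPI nuclei at end minus before drug, mean of two replicates) and medium lactate by absorbance per cell, both as ratio to non-targeting siRNA, also grouped into fold-change classes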
Scale: cell gain with vemurafenib: higher = more cell gain than with non-targeting siRNA; lactate per cell with vemurafenib: higher = more lactate made per cell
Rule for the call: 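Enhancement is called by pairing each knock-down's vehicle-arm and drug-arm fold-change classes for viability or glycolysis; which class combinations qualify is not given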
Calls: active = enhances vemurafenib effect; inactive = no enhancement seen

| gene knocked down | cell gain with vemurafenib | lactate per cell with vemurafenib |
| --- | --- | --- |
| FSCB (GeneID 84075) | 0.19 | 1.43 |
| WDTC1 (GeneID 23038) | 0.54 | 1.66 |
| MIP (GeneID 4284) | 1.28 | 0.32 |
| XYLT2 (GeneID 64132) | 0.74 | 0.97 |
| CLDN10 (GeneID 9071) | 1.13 | 0.23 |
| BRCA1 (GeneID 672) | 0.98 | 1.08 |
| NME5 (GeneID 8382) | 0.65 | 0.5 |
| CLDND2 (GeneID 125875) | 0.14 | 1.56 |
| ANXA4 (GeneID 307) | 0.36 | 1.31 |
| ABCA2 (GeneID 20) | 0.41 | 0.87 |
| FAM13A (GeneID 10144) | 0.43 | 1.14 |
| EVA1C (GeneID 59271) | 0.73 | 1.52 |
| F2R (GeneID 2149) | 0.79 | 0.44 |
| SSPN (GeneID 8082) | 0.32 | 0.85 |
| SLC5A1 (GeneID 6523) | 0.12 | 1.21 |
| ADGRE3 (GeneID 84658) | 0.59 | 0.82 |
| OXT (GeneID 5020) | 0.46 | 1.1 |
| PCDHGA1 (GeneID 56114) | 0.05 | 2.73 |
| OGN (GeneID 4969) | 0.89 | 0.3 |
| EIF1AY (GeneID 9086) | 0.97 | 1.18 |
| WDR35 (GeneID 57539) | 0.42 | 0.76 |
| CERS3 (GeneID 204219) | 0.35 | 0.54 |
| GNL3L (GeneID 54552) | 1.18 | 0.54 |
| MSANTD2 (GeneID 79684) | 0.51 | 1.4 |
| ENSA (GeneID 2029) | 0.68 | 0.32 |
| KRABD2 (GeneID 124751) | 0.74 | 0.58 |
| MBD4 (GeneID 8930) | 0.77 | 0.8 |
| C17orf75 (GeneID 64149) | 0.66 (active) | 0.63 |
| RASGRP3 (GeneID 25780) | 0.18 | 1.96 |
| SYN3 (GeneID 8224) | 0.41 | 1.1 |
| C10orf55 (GeneID 414236) | 0.35 | 0.92 |
| USP36 (GeneID 57602) | 0.24 | 0.59 |
| EED (GeneID 8726) | 0.22 | 1.61 |
| ZNF551 (GeneID 90233) | 0.18 | 2.01 |
| ADRA2B (GeneID 151) | 0.78 | 1.23 |
| FXR2 (GeneID 9513) | 0.41 | 1.6 |
| CFHR2 (GeneID 3080) | 0.5 | 1.21 |
| UBA5 (GeneID 79876) | 0.82 | 0.54 |

Entries listed above marked active (1):
| gene knocked down | cell gain with vemurafenib | lactate per cell with vemurafenib |
| --- | --- | --- |
| C17orf75 (GeneID 64149) | 0.66 (active) | 0.63 |

Next records follow.
| gene knocked down | cell gain with vemurafenib | lactate per cell with vemurafenib |
| --- | --- | --- |
| ZKSCAN1 (GeneID 7586) | 0.97 | 0.76 |
| MRPS30 (GeneID 10884) | 1.43 | 0.33 |
| ATP10D (GeneID 57205) | 0.63 | 0.96 |
| ACTR3B (GeneID 57180) | 0.87 | 0.83 |
| PTHLH (GeneID 5744) | 0.34 | 1.02 |
| SKP1 (GeneID 6500) | 0.41 | 1.66 |
| ZNF329 (GeneID 79673) | 0.58 | 0.8 |
| ZNF878 (GeneID 729747) | 1.42 | 0.52 |
| NDUFB7 (GeneID 4713) | 0.35 | 1.23 |
| ADGRF3 (GeneID 165082) | 0.48 | 0.84 |
| ANAPC5 (GeneID 51433) | 0.38 | 1.49 |
| NDUFAB1 (GeneID 4706) | 0.97 | 2 |
| UPF1 (GeneID 5976) | 0.27 | 1.33 |
| NKPD1 (GeneID 284353) | 0.41 | 1.19 |
| RAB6C (GeneID 84084) | 0.84 | 0.42 |
| TUBB4A (GeneID 10382) | 0.09 | 1.29 |
| GGA2 (GeneID 23062) | 0.66 | 0.8 |
| MLF2 (GeneID 8079) | 0.3 | 0.99 |
| PTGES (GeneID 9536) | 0.88 | 1.15 |
